For at least one entry, the source does not settle the construct or the ends of the probe. Negatives hold for the conditions tested.

Amino acid sequences for entries named in this document (tags omitted). Residues count along the entry.
UniProt Q13568, 1-131: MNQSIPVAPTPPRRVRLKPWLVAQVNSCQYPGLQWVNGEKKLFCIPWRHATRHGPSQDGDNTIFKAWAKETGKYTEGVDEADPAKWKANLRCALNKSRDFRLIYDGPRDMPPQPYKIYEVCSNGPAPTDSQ

2 sequences from patent US20140030218 can be followed below.

For this data set, the target named is IRF5 DBD (aa 1-131) (Homo sapiens) (UniProt Q13568). In words: EMSA. To be noted: 50 ng IRF5 DBD, purified recombinant protein, protein details: expressed from pET21d in bacteria, label: 32P (dCTP fill-in). (Mobility shift assays separate free from complexed probe on a gel.)

Consider “AGCTCCGGGTCAGAATGAAAGAAGAAGG / AGCTCCTTCTTCTTTCATTCTGACCCGGT [TNF ISRE2]”, for which the binding result (ISRE 1/2 said to interact in vitro) was “binds”.

Take “AGCTGGGCATGGGAATTTCCAACTCT / AGCTGAGTTGGAAATTCCCATGCCC [TNF kB4]”: the binding result is on record as “no binding”.
